The record followed here is article PMC6092318, “Keap1–MCM3 interaction is a potential coordinator of molecular machineries of antioxidant response and genomic DNA replication in metazoa” (Scientific Reports, 2018).

By UniProt entry, the sequences of proteins in these tests, tags left out.
UniProt Q9Z2X8: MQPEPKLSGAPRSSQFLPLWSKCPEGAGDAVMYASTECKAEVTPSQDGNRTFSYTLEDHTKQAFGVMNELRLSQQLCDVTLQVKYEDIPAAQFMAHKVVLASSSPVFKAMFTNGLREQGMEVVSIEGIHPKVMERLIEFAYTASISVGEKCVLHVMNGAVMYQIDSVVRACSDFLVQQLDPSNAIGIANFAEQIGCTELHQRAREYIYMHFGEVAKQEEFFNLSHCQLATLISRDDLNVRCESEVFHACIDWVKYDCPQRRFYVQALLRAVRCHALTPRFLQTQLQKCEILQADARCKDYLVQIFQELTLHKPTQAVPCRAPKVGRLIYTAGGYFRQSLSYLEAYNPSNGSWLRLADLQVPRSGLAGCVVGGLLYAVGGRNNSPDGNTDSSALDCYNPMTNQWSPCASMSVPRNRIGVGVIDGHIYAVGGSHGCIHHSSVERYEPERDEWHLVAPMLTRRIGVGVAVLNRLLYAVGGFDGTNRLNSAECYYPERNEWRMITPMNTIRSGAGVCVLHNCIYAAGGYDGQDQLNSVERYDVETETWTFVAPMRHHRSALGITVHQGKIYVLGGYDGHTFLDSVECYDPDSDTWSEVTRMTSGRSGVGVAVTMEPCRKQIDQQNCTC

Results are given in words; binding and its absence hold for the method and conditions named. For some assays here: Binding calls can cover weak binding; strength is not graded here. For some assays here: Sequences can lack the tags named with a protein. For some assays here: In cells and extracts the contact can be indirect.

Assay [1] concerns the target strep-Keap1 (mouse, wild type, baculovirus) (mouse) (UniProt Q9Z2X8). In words: pull-down; Strep-Tactin beads (strep-Keap1 as bait) on extracts of baculovirus co-infected Sf9 cells, 1 hr at 4 °C, washes with 250 mM KCl buffer pH 7.8, Western blot. (In western blotting, separated proteins are transferred to a membrane and probed.)
The target of assay [2] is T1, FLAG-MCM3 (mouse MCM3 expressed in CHO-EBNALT85 cells) (mouse) (UniProt P25206).
T1 sequence: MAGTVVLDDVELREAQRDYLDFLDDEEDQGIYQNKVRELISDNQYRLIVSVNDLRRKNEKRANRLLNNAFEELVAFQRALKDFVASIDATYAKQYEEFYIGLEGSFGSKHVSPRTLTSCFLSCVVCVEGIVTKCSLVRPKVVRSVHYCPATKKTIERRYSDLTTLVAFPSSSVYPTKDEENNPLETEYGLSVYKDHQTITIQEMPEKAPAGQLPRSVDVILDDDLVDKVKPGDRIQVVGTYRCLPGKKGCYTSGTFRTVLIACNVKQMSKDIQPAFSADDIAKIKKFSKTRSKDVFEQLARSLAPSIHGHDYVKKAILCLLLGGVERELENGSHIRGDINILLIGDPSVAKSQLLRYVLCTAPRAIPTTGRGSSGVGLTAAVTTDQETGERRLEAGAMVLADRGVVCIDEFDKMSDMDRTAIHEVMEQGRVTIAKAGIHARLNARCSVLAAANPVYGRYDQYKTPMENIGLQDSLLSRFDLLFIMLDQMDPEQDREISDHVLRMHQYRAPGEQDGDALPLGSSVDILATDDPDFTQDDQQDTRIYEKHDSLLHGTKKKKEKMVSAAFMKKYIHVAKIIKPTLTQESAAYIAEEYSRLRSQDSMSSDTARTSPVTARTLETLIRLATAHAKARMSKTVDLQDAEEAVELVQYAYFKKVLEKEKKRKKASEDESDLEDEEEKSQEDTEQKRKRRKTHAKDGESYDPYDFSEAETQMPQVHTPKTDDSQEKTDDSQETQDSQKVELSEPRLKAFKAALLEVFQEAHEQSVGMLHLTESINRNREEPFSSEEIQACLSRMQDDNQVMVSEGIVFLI
In words: co-IP; anti-FLAG M2 beads on whole cell, nuclear and cytoplasmic extracts of FLAG-MCM3 expressing CHOEBNALT85 cells, 150 mM KCl, Western blot.

In assay [3] the target is T1, FLAG-MCM3 (mouse MCM3 expressed in CHO-EBNALT85 cells) (mouse). In words: SEC; Superdex 200 10/300 GL of the FLAG-MCM3 immunoprecipitates from CHO extracts, C-150 buffer with 10% glycerol; gels and Western blots of fractions.
For assay [4], the target named is FLAG-MCM3 ETGE > EAGE mutant (mouse, baculovirus) (mouse) (UniProt P25206). In words: co-IP; anti-FLAG beads (FLAG-MCM3 as bait; called FLAG-MCM3 pulldown) on extracts of baculovirus co-infected Sf9 cells, 1 hr at 4 °C, washes with 250 mM KCl buffer pH 7.8, Western blot.

Consider “FLAG-MCM3 ETGE > EAGE mutant (mouse, baculovirus) (from UniProt P25206)”, for which the binding result in assay [1] is reported as “no binding”.

As to “Keap1 (endogenous, CHO cells) (Chinese hamster (endogenous in CHO))”, the binding entry in assay [2] and in assay [3] was “binds” in each case.

For the molecule “MCM-BP (endogenous, CHO cells) (Chinese hamster (endogenous in CHO))”, the binding result in assay [3] is recorded as “binds”.

B1: HA-MCM-BP (mouse, baculovirus) (natural protein, UniProt Q8R3C0 1-642, looked up)
chain: MPCGEDWLSHPLGIVQGFFAQNGVNPDWEKKVIEYFKEKLKENNAPKWVPSLNEVPLHYLKPNSFVKFRCMIQDMFDPEFYMGIYETVNQNTKARVLHFGKYRDVAECGPQQELDLSSPRSTTSERQTFYCVPVPGESSWVKEAYVNANQARVSPSTSYTPSRHKRSYEDDEDMDLQPSKQKEQHPGSRQAGGLGGLHWCGEPKRLETEASSGQQLNTLNLSSPFDLNFPLPGEKGPACLVKVYEDWDCFKVNDVLELYGVLSVDPVLSVLNSEERDASALLDPMECTDMAEEQRVHSPPASLVPRIHVILAQKLQHINPLLPTCLNKEESRSCQFVSNFMSELSPVRAELLGFLTHALLGDSLAAEYLILHLISTVYTRRDVLPLGKFTVNLSGCPQNSTFTEHLYRIIQHLVPASFRLQMTIENMNQLKLIPHKDYTANRLVSGLLQLPNNTSLVIDETLLEQGQLDTPGVHNVTALSNLITWQKVDYDFSYHQMEFPCNINVLITSEGRSLLPADCQIHLQPQLIPPNMEEYMNGLLSAVLPSVLNKFRIYLTLLRFLDYNLSDDITKAVEDDFVEMRKDDPQSITADDLHQLLVVARFLSLSVGQTTLSRERWLRAKQLELSRKARLQQQKSVNGNEL
notes: MCM-BP, mouse; cDNA cloned into pFastBac1; source: Sf9, baculovirus infected, in extract
As for B1, the binding entry in assay [4] was “binds”.
